The nature of this assay: qHTS Assay to Find Inhibitors of Chronic Active B-Cell Receptor Signaling. The following applies: ABC-DLBCL IkBa-CBG/CBR reporter, luminescence ratio (green luciferase fused to IkBa over red control in TMD8 lymphoma cells), 4 h. In a few lines:
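TMD8 human ABC-DLBCL cells with doxycycline-inducible IκBα–green luciferase fusion and unfused red luciferase, in 0.5% FBS medium; compounds up to 46 uM, 4 h at 37C. Green/red luminescence ratio, filter-overlap corrected, fitted to concentration-response curves.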
(In general: In qHTS, concentration-response curves come from the screen itself.)

Where [1] appears, read: measured here: CBR red luminescence, cell number.
The mark [2] stands for this setting: measured here: IkBa-CBG green luminescence.

For orientation: AC50 means the midpoint of the concentration-response curve, whichever way the signal moves.

This is one part of the list. Shown are side measurements of this screen, not its main read-out; they come without a call. Most of these compounds were active or inconclusive in the main read-out, so they are no random draw. Potencies come from curve fits of mixed quality, noted in brackets.

Regarding `O=c1c2ccccc2nc(-c2ccco2)n1-c1ccccc1`, under setting [1], the AC50 is 3.26 µM [rising, partial curve, poor fit].
The same measure, in the same setting: with `CN(C)CCC=C1c2ccccc2CCc2ccccc21` the figure was 20.6 µM [falling, single point].
With `COc1cccc(-n2c(/C=C/c3ccc(O)c(O)c3)nc3ccccc3c2=O)c1`, the AC50 under setting [1] is 11.2 µM [falling, partial curve].
Regarding `CC(C)c1ccc(OCC(=O)N2CCN(C)CC2)c(Br)c1`, the AC50 under setting [1] is 29.1 µM [rising, single point].
On to `O=c1[nH]c(=S)n(-c2cccc(Cl)c2)c(O)c1C=NCCN1CCNCC1`, for which the half-maximal activity concentration (AC50) under setting [1] is 12.6 µM [falling, partial curve].
Still for that read-out and setting: the value for `Cn1c(=O)c2[nH]cnc2n(C)c1=O` was 2 µM [falling, full curve]; that for `Cc1ccc(S(=O)(=O)CC(CN2CCCCC2)N2CCCCC2)cc1` (stereo unspecified) was 2.51 µM [falling, full curve, poor fit].
Still for that read-out and setting: the value for `CCNc1cc(N2CCN(C)CC2)ccc1[N+](=O)[O-]` was 35.5 µM [falling, single point].
In the case of `O=C1CN=C(c2ccccc2Cl)c2cc(Cl)ccc2N1Cc1cccc(Cl)c1`, under setting [2], the concentration at half-maximal activity (AC50) was 7.94 µM [rising, partial curve, poor fit].
For the compound `O=C1CC(=O)N(c2cccc(F)c2)C(=O)N1`, under setting [1], the AC50 is 10 µM [falling, partial curve, poor fit].
On the same count and under the same terms, the value for `CC(=O)OC(C)(C)/C=C/C(=O)C(C)(O)C1[C@H](O)C[C@@]2(C)C3CC=C4C(CC[C@@H](O)C4(C)C)[C@]3(CO)C(=O)C[C@]12C` (stereo partly specified) was 11.2 µM [falling, single point].
Take `C[C@]12CCC(=O)C=C1CC[C@@H]1[C@@H]2CC[C@]2(C)C(=O)CC[C@@H]12`: under setting [1], the half-maximal activity concentration (AC50) was 20.6 µM [rising, single point].
Same read-out and setting: with `CN(C)c1nc(C=C(C#N)C#N)c(Cl)n1-c1ccc(F)cc1` the figure was 10 µM [falling, partial curve, poor fit]; with `COC(=O)C1=C(c2ccccc2OCc2ccccc2)C[C@@H]2CC[C@H]1N2C(=O)NCc1ccc(OC)c(OC)c1`, 1.46 µM [falling, full curve, poor fit].
With `CN1CCN(C(=O)COc2ccc3ccccc3c2)CC1`, the AC50 under setting [1] was 11.2 µM [rising, partial curve, poor fit].
Still for that read-out and setting: the value for `C/C=C(\C)C(=O)OC1C(C)=C2C(C1OC(=O)CCCCC)C(C)(OC(C)=O)CC(OC(=O)CCC)C1(O)C2OC(=O)C1(C)O` (stereo unspecified) was 14.1 µM [falling, single point].
Same read-out and setting: the value for `CCCCOc1ccc(CCN)cc1Cl` was 5.17 µM [falling, partial curve, poor fit].
Still for that read-out and setting: the value for `Cc1ccc2c(c1)C(c1ccccc1)=NCC(=O)N2` was 28.2 µM [falling, single point]; that for `COc1ccccc1N1C(=O)NC(=O)/C(=C\c2cnn(-c3ccccc3)c2)C1=O` was 25.1 µM [rising, partial curve].
With `CC(C)OCCCNC(=O)c1c(N)n(Cc2cccs2)c2nc3ccccc3nc12`, the AC50 under setting [1] was 11.2 µM [falling, partial curve, poor fit].
As for `CN(C)CCNC(=O)c1cccn(Cc2cccc(C(F)(F)F)c2)c1=O`, the concentration at half-maximal activity (AC50) under setting [1] was 10 µM [falling, partial curve].
For `O=c1oc2ccccc2c(O)c1C(c1ccccn1)c1c(O)c2ccccc2oc1=O`, the AC50 under setting [1] is 2 µM [falling, partial curve, poor fit].
`CC(C)c1nc2cc3ccccc3cc2[nH]1`: the AC50 under setting [1] was 14.1 µM [falling, single point].
On the same count and under the same terms, the value for `C=CCNC(=O)c1c(N)n(CCN2CCOCC2)c2nc3ccccc3nc12` was 15.8 µM [falling, single point].
The same measure, in the same setting: the value for `O=C(O)CN1C(=O)CN=C(c2ccccn2)c2cc(Cl)ccc21` was 5.62 µM [rising, single point]; that for `O=C(N/N=C/c1c(O)n(C2CC2)c(=S)[nH]c1=O)c1ccccc1` was 2.82 µM [falling, full curve]; that for `O=C(c1ccccc1)c1ccc(N=Nc2c(O)[nH]c(=O)[nH]c2=O)cc1` was 35.5 µM [rising, single point].
On the same count and under the same terms, the value for `CCC(C)NC(=O)c1c(N)n(CC2CCCO2)c2nc3ccccc3nc12` (stereo unspecified) was 12.6 µM [falling, partial curve, poor fit]; that for `CC[C@H](C)[C@@H](C(=O)N1CCCC1c1nccs1)N(C)C(=O)[C@H](CC(C)C)N(C)C(=O)[C@H](Cc1ccc(OC)cc1)N(C)C(=O)/C=C(\C)OC` (stereo partly specified) was 29.1 µM [rising, partial curve, poor fit].
For `Cc1ccc(-c2nc3ccccc3c(=O)n2-c2ccncc2)cc1`, under setting [2], the AC50 was 16.4 µM [rising, partial curve, poor fit].
`O=C(c1ccccc1F)c1cn(Cc2ccc(F)cc2)c2ccccc12`: the concentration at half-maximal activity (AC50) under setting [1] was 23.1 µM [rising, partial curve, poor fit].
Same read-out and setting: the value for `O=c1c2ccccc2nc(-c2ccccc2)n1-c1ccccc1O` was 22.4 µM [falling, single point]; that for `COc1ccc(CCNC(C)CCc2ccc(OC)cc2)cc1` (stereo unspecified) was 3.26 µM [rising, single point]; that for `CC(=O)Nc1ccc(C(=O)C(Cc2ccccc2)N(C)C)cc1` (stereo unspecified) was 17.8 µM [rising, partial curve, poor fit].
On the same count and under the same terms, with `CCCCn1c(O)c(/C(C)=N/NC(=O)Nc2ccccc2)c(=O)[nH]c1=O` the figure was 35.5 µM [falling, single point]; with `Cn1cc(C(=O)OCC(=O)N2CCCCC2)c2ccccc21`, 2.06 µM [falling, full curve]; with `COc1ccc(-c2nc3ccccc3c(=O)o2)cc1`, 3.55 µM [falling, full curve].
For the compound `COC(=O)C1=C(c2c(C)noc2C)C[C@@H]2CC[C@H]1N2C(=O)N1CCc2cc(OC)c(OC)cc2C1`, under setting [1], the AC50 is 2.91 µM [rising, single point].
With `CCCCCCN1CCN(c2ccc(Cl)cc2)CC1`, the concentration at half-maximal activity (AC50) under setting [1] was 31.6 µM [rising, single point].
Same read-out and setting: with `Oc1ccc(Cl)c(Cl)c1Cl` the figure was 2.31 µM [rising, partial curve, poor fit]; with `COC(=O)C1=C(c2ccc(-c3ccccc3)c(F)c2)C[C@@H]2CC[C@H]1N2C(=O)NC(C)C`, 11.6 µM [falling, partial curve, poor fit].

These data come from PubChem BioAssay AID493014 (National Center for Advancing Translational Sciences (NCATS), 2011).
